From PMC2999606
Results are given in words; binding and its absence hold for the method and conditions named. In cells and extracts the contact can be indirect. Binding can be weak; no strength is given. Sequences can lack the tags named with a protein.

Biological target: T1, Flag-tagged chicken p53 (chicken) (UniProt P10360)
T1 sequence: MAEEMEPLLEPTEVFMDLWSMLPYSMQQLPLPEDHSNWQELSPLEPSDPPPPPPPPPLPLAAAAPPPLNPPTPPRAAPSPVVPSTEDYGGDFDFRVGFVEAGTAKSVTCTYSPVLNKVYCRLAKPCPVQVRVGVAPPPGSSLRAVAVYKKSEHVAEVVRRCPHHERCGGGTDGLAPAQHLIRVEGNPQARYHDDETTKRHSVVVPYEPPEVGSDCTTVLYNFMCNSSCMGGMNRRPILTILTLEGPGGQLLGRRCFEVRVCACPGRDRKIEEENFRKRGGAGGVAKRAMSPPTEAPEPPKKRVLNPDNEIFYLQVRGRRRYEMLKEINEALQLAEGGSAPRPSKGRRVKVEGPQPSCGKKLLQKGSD
Experiment: co-IP; CEF cells co-transfected, 24 h; lysates immunoprecipitated with anti-Flag antibodies, immunoblotted with anti-GFP antibodies

Substance: GFP-tagged Meq (Marek's disease virus (MDV), strain RB1B)
- binding: binds
